{
  "source": "patent US6555652B1",
  "about": "“Tumor antigen peptide derivatives” (Kyogo Itoh, priority 1997, dated 2003)",
  "format_in_all_cases": "cell-based, human",
  "key": {"[1]": {"system": "VA-13 cells transfected with different HLA-A0201 cDNA", "assay": "IFN-γ production by KE-4CTL against peptide-pulsed VA-13 cells transfected with HLA-A0201 cDNA (control)", "conditions": "pulsed cell VA-13/A0201 (control HLA)"}, "[2]": {"system": "VA-13 cells transfected with HLA-A2402 cDNA", "assay": "IFN-γ production by KE-4CTL against peptide-pulsed VA-13 cells transfected with HLA-A2402 cDNA", "conditions": "pulsed cell VA-13/A2402"}, "VA-13": {"system": "VA-13", "assay": "IFN-γ production by KE-4CTL against peptide-pulsed VA-13 cells (no HLA transfected)", "conditions": "pulsed cell VA-13 (no HLA transfected)"}, "[3]": {"system": "esophageal cancer cell line KE-4", "conditions": "Table 6, target KE-4", "experimental": "J. Cancer, 58:317 (1994).\n(§1) For peptide having the sequence of “690-698 (SEQ ID NO: 3)”, peripheral blood lymphocytes were recovered after the third stimulation, and further cultured in RPMI-1640 medium containing 10% FCS, 50% AIM-V (Gibco BRL), and IL-2 (100 U/ml). Then, the cytotoxic activity was measured as above using ^51Cr-labeled KE-4 and VA-13 cells as target cells. In addition, lymphocytes were isolated from peripheral blood of a normal individual of which HLA-A loci were homozygous A24, and measured for their cytotoxic activity (specific lysis) in the same manner as above using, as target cells, ^51Cr-labeled KE-4 and lung cancer cell line QG-56 of which HLA-A loci are homozygous A2601."}, "VA-13 cells": {"system": "VA-13 cells", "assay": "51Cr release cytotoxicity of peptide-stimulated peripheral blood lymphocytes on VA-13", "conditions": "Table 6; effector: stimulated peripheral blood lymphocytes from a cancer patient; target VA-13 (negative control)", "experimental": "as §1"}, "[4]": {"system": "lung cancer cell line QG-56", "assay": "51Cr release cytotoxicity of peptide-stimulated peripheral blood lymphocytes on QG-56", "conditions": "Table 6; effector: stimulated peripheral blood lymphocytes from a normal individual; target QG-56 (negative control)", "experimental": "as §1"}},
  "note": "Read-outs that look alike come from different tables or passages of the source. At least one peptide structure holds a part that was inferred or is arguable (an end, a ring closure or a residue). No end group written: not given here.",
  "data": [
    {"sequence": "EYRGFTQDF [690-698]", "values": [
      {"measurement": "Amount of INF-γ produced by KE4-CTL cells", "setting": "[1]", "result": 166, "unit": "pg/mL"},
      {"measurement": "Amount of INF-γ produced by KE4-CTL cells", "setting": "[2]", "result": 269, "unit": "pg/mL"},
      {"measurement": "Amount of INF-γ produced by KE4-CTL cells", "setting": "VA-13", "result": 157, "unit": "pg/mL"},
      {"measurement": "Specific lysis", "setting": "[3]; effector: stimulated peripheral blood lymphocytes from a cancer patient, further cultured", "result": 24.7, "unit": "%"},
      {"measurement": "Specific lysis", "setting": "[3]; effector: stimulated peripheral blood lymphocytes from a normal individual (HLA-A24 homozygous)", "result": 17.7, "unit": "%"},
      {"measurement": "Specific lysis", "setting": "VA-13 cells", "result": 13.8, "unit": "%"},
      {"measurement": "Specific lysis", "setting": "[4]", "result": 11.5, "unit": "%"}
    ]}
  ]
}
